This data set concerns Pfa1 cells. Description: Cellular toxicity, Pfa1 cells without TAM (Example B.5). The class given is cell-based, mouse. Particulars: for Therapeutic Window (approx.. fold): TC50 divided by the corresponding IC50 from example B.4 (Pfa1/TAM); for Therapeutic Window (approx. fold): TC50 divided by the IC50 of Example B.4. From the text:
An estimate of the toxicity for compounds disclosed herein was obtained by using the same assay as described in Example B.4, but without the addition of TAM. […] Such TC50 values obtained for certain compounds disclosed herein, together with an approximate therapeutic window (estimated by dividing each TC50 by the corresponding IC50 determined from example B.4) are shown in Table 3 and Table 4.

Some results come without the dose or concentration used. Marks after values point to notes of the source that are not given here. Where only a bound is given, the exact number is not on record here.

`Cc1cccc2c1NC1(CCCCC1)C(NCc1ccccc1)=N2` [C-263]: the “Therapeutic Window (approx.. fold)” value is reported as greater than 20 fold.

In the case of `FC(F)(F)c1cccc(CNC2=Nc3cc(Cl)c(Cl)cc3NC23CCCCC3)c1` [C-264], the “Therapeutic Window (approx.. fold)” value is listed as greater than 20 fold.

For `Fc1ccc(CNC2=Nc3cc(Cl)c(Cl)cc3NC23CCCCC3)c(F)c1` [C-265], the “Therapeutic Window (approx.. fold)” value is reported as greater than 50 fold.

Consider `Fc1cccc(F)c1CNC1=Nc2ccccc2NC12CCCCCC2` [C-266], for which the “Therapeutic Window (approx.. fold)” value is listed as greater than 20 fold.

Turning to `Cc1cccc(CNC2=Nc3cc(Cl)c(Cl)cc3NC23CCCCCC3)c1` [C-267], the “Therapeutic Window (approx.. fold)” value was greater than 50 fold.

Take `Cc1cccc(CNC2=Nc3cc(Cl)c(Cl)cc3NC23CCCCC3)c1` [C-268]: the “Therapeutic Window (approx.. fold)” value is greater than 100 fold.

For the molecule `CC(C)(C)c1ccc(CNC2=Nc3ccccc3NC23CCCCC3)cc1` [C-269], the “Therapeutic Window (approx.. fold)” value is given as greater than 20 fold.

On to `c1ccc2c(c1)CCC2NC1=Nc2ccccc2NC12CCCCC2` [D-2], for which the “Therapeutic Window (approx. fold)” value was greater than 100 fold.

Regarding `c1ccc2c(c1)CCC2NC1=Nc2ccccc2NC12CCOCC2` [D-3], the “Therapeutic Window (approx. fold)” value is given as greater than 50 fold.

For the molecule `c1ccc2c(c1)CCCC2NC1=Nc2ccccc2NC12CCCCC2` [D-4], the “Therapeutic Window (approx. fold)” value was greater than 100 fold.

Consider `c1ccc2c(c1)CCC2NC1=Nc2ccccc2NC12CCNCC2` [D-5], for which the “Therapeutic Window (approx. fold)” value was greater than 200 fold.

As for `c1ccc2c(c1)N=C(NCCc1c[nH]c3ccccc13)C1(CCNCC1)N2` [D-6], the “Therapeutic Window (approx. fold)” value is given as greater than 100 fold.

`c1ccc2c(c1)CCCC2NC1=Nc2ccccc2NC12CCNCC2` [D-7]: the “Therapeutic Window (approx. fold)” value is reported as greater than 100 fold.

`Clc1cccc(CNC2=Nc3ccccc3NC23CC2CCC(C3)N2)c1` [D-8]: the “Therapeutic Window (approx. fold)” value was greater than 100 fold.

Regarding `c1ccc(CNC2=Nc3ccccc3NC23CC2CCC(C3)N2)cc1` [D-9], the “Therapeutic Window (approx. fold)” value was greater than 20 fold.

Consider `Clc1cccc(CNC2=Nc3ncccc3NC23CCCCC3)c1` [D-10], for which the “Therapeutic Window (approx. fold)” value is greater than 5 fold.

For `Clc1cccc(CNC2=Nc3cc(Cl)ncc3NC23CCCCC3)c1` [D-11], the “Therapeutic Window (approx. fold)” value was greater than 5 fold.

`c1csc(CNC2=Nc3ccccc3NC23CCCCC3)c1` [D-12]: the “Therapeutic Window (approx. fold)” value was greater than 10 fold.

Take `c1cncc(CNC2=Nc3ccccc3NC23CCCCC3)c1` [D-13]: the “Therapeutic Window (approx. fold)” value is reported as greater than 20 fold.

`Cc1cc(CNC2=Nc3ccccc3NC23CCCCC3)on1` [D-17]: the “Therapeutic Window (approx. fold)” value is reported as >25* fold.

For the molecule `Clc1cc2c(cc1Cl)NC1(CCCCC1)C(NCc1cccnc1)=N2` [D-19], the “Therapeutic Window (approx. fold)” value is recorded as greater than 100 fold.

For the molecule `c1ccc2c(c1)N=C(NCc1nccs1)C1(CCCCC1)N2` [D-20], the “Therapeutic Window (approx. fold)” value is reported as >25* fold.

Consider `Clc1cc2c(cc1Cl)NC1(CCCCC1)C(NCc1cccs1)=N2` [D-21], for which the “Therapeutic Window (approx. fold)” value is given as greater than 20 fold.

As to `c1ccc2c(c1)N=C(NCc1cncs1)C1(CCCCC1)N2` [D-22], the “Therapeutic Window (approx. fold)” value is given as >20* fold.

Consider `c1coc(CNC2=Nc3ccccc3NC23CCCCC3)c1` [D-23], for which the “Therapeutic Window (approx. fold)” value was >25* fold.

For `c1ccc2c(c1)N=C(NCc1ccncc1)C1(CCCCC1)N2` [D-24], the “Therapeutic Window (approx. fold)” value is reported as >25* fold.

As for `c1csc(CNC2=Nc3ccccc3NC23CCNCC3)c1` [D-181], the “Therapeutic Window (approx. fold)” value is greater than 100 fold.

Consider `CN1CCC2(CC1)Nc1cc(Cl)c(Cl)cc1N=C2NCc1cccc(Cl)c1` [F-24], for which the “Therapeutic Window (approx. fold)” value is recorded as greater than 100 fold.

Consider `C#CCCCCCCCCC(=O)N1CCC2(CC1)Nc1ccccc1N=C2NCc1cccc(Cl)c1` [F-25], for which the “Therapeutic Window (approx. fold)” value is on record as greater than 50 fold.

On to `C#CCCCCCCCCC(=O)N1CCC2(CC1)Nc1cc(Cl)c(Cl)cc1N=C2NCc1cccc(Cl)c1` [F-26], for which the “Therapeutic Window (approx. fold)” value is on record as greater than 50 fold.

On to `Clc1ccccc1CNC1=Nc2ccccc2NC12CCNCC2` [N-1], for which the “Therapeutic Window (approx.. fold)” value is listed as greater than 500 fold.

On to `Clc1cccc(CNC2=Nc3ccccc3NC23CCNCC3)c1` [N-2], for which the “Therapeutic Window (approx.. fold)” value is greater than 500 fold.

Take `Clc1ccc(CNC2=Nc3ccccc3NC23CCNCC3)cc1` [N-3]: the “Therapeutic Window (approx.. fold)” value is greater than 5000 fold.

`Fc1cccc(CNC2=Nc3ccccc3NC23CCNCC3)c1` [N-5]: the “Therapeutic Window (approx.. fold)” value is on record as greater than 200 fold.

In the case of `COc1cccc(CNC2=Nc3ccccc3NC23CCNCC3)c1` [N-14], the “Therapeutic Window (approx.. fold)” value is listed as greater than 100 fold.

For `FC(F)(F)c1cccc(CNC2=Nc3ccccc3NC23CCNCC3)c1` [N-23], the “Therapeutic Window (approx.. fold)” value was greater than 1000 fold.

With `Clc1ccc(CNC2=Nc3ccccc3NC23CCNCC3)c(Cl)c1` [N-56], the “Therapeutic Window (approx.. fold)” value is recorded as greater than 1000 fold.

As for `Fc1cc(Cl)ccc1CNC1=Nc2ccccc2NC12CCNCC2` [N-61], the “Therapeutic Window (approx.. fold)” value was greater than 1000 fold.

As for `Clc1cccc(CCNC2=Nc3ccccc3NC23CCNCC3)c1` [N-79], the “Therapeutic Window (approx.. fold)” value was greater than 50 fold.

On to `CN1CCC2(CC1)Nc1ccccc1N=C2NCc1cccc(Cl)c1` [N-90], for which the “Therapeutic Window (approx.. fold)” value was greater than 500 fold.

On to `CC(=O)N1CCC2(CC1)Nc1ccccc1N=C2NCc1cccc(Cl)c1` [N-99], for which the “Therapeutic Window (approx.. fold)” value is reported as greater than 100 fold.

Consider `Cc1cc2c(cc1C)NC1(CCNCC1)C(NCc1cccc(Cl)c1)=N2` [N-111], for which the “Therapeutic Window (approx.. fold)” value is on record as greater than 1000 fold.

Consider `Clc1cccc(CNC2=Nc3cc(Cl)c(Cl)cc3NC23CCNCC3)c1` [N-115], for which the “Therapeutic Window (approx.. fold)” value was greater than 200 fold.

As to `Fc1cc2c(cc1F)NC1(CCNCC1)C(NCc1cccc(Cl)c1)=N2` [N-117], the “Therapeutic Window (approx.. fold)” value was greater than 20 fold.

`Clc1cccc(CNC2=Nc3ccccc3NC23CCCNCC3)c1` (stereo not drawn) [N-185]: the “Therapeutic Window (approx.. fold)” value was greater than 5 fold.

On to `CN1CCC2(CC1)Nc1ccccc1N=C2NCc1ccccc1` [N-204], for which the “Therapeutic Window (approx.. fold)” value is given as greater than 50 fold.

With `Clc1cc2c(cc1Cl)NC1(CCNCC1)C(NCc1ccccc1)=N2` [N-205], the “Therapeutic Window (approx.. fold)” value is greater than 100 fold.

In the case of `c1ccc(CNC2=Nc3ccccc3NC23CCNCC3)cc1` [N-206], the “Therapeutic Window (approx.. fold)” value is given as greater than 100 fold.

For the molecule `Clc1cc2c(cc1Cl)NC1(CCNCC1)C(NCc1ccccc1Cl)=N2` [N-207], the “Therapeutic Window (approx.. fold)” value is listed as greater than 500 fold.

On to `Clc1ccc(CNC2=Nc3cc(Cl)c(Cl)cc3NC23CCNCC3)cc1` [N-208], for which the “Therapeutic Window (approx.. fold)” value is greater than 500 fold.

For `CN1CCC2(CC1)Nc1ccccc1N=C2NCc1ccccc1Cl` [N-209], the “Therapeutic Window (approx.. fold)” value is greater than 100 fold.

On to `Cc1cc2c(cc1C)NC1(CCNCC1)C(NCc1ccccc1)=N2` [N-210], for which the “Therapeutic Window (approx.. fold)” value is listed as greater than 1000 fold.

For the molecule `Clc1ccc(CNC2=Nc3ccccc3NC23CCNCC3)cc1Cl` [N-211], the “Therapeutic Window (approx.. fold)” value is recorded as greater than 1000 fold.

With `c1ccc(CNC2=Nc3ccccc3NC23CCCNCC3)cc1` (stereo not drawn) [N-212], the “Therapeutic Window (approx.. fold)” value is recorded as greater than 10 fold.

With `CN1CCC2(CC1)Nc1ccccc1N=C2NCc1ccc(Cl)cc1` [N-213], the “Therapeutic Window (approx.. fold)” value is listed as greater than 100 fold.

`Cc1cc2c(cc1C)NC1(CCNCC1)C(NCc1ccc(Cl)cc1)=N2` [N-214]: the “Therapeutic Window (approx.. fold)” value is greater than 1000 fold.

For the molecule `CN1CCC2(CC1)Nc1ccccc1N=C2NCc1cccc(C(F)(F)F)c1` [N-215], the “Therapeutic Window (approx.. fold)” value is on record as greater than 500 fold.

The record behind these values is US10647687B2, “Spiropyrazine derivatives as inhibitors of non-apoptotic regulated cell-death” (Helmholtz Zentrum München Deutsches Forschungszentrum für …, priority 2014, dated 2020).
